Measurements from PMC3470569.
Results are given in words; binding and its absence hold for the method and conditions named. Where a sequence is shown, tags or fusion partners need not be part of it.

Key:
[1] = target: T1, A(205-224) (S. cerevisiae) (UniProt P17255); experiment: peptide or protein array; 20-mer peptides linked at their C-terminal end to cellulose and spotted in duplicate on glass slides; blocked in 2% nonfat milk; purified probe at 4 µM in TBS for 1 hour at 4°C; bound probe detected through MBP or FLAG with HRP-coupled antibody (chemiluminescence); hits by ANOVA (p 0.05, Bonferroni) and HCL in MeV, score of at least 1 in 75% of the spots; both purified
T1 sequence (peptide, C-terminal end linked to cellulose): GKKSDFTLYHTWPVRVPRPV

[2] = target: T2, H(221-240) (S. cerevisiae) (UniProt P41807); experiment: as above
T2 sequence (peptide, C-terminal end linked to cellulose): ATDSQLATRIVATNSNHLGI

B1: full-length subunit H (Vma13p), N-terminal MBP fusion (protein, UniProt P41807 1-478)
chain: MGATKILMDSTHFNEIRSIIRSRSVAWDALARSEELSEIDASTAKALESILVKKNIGDGLSSSNNAHSGFKVNGKTLIPLIHLLSTSDNEDCKKSVQNLIAELLSSDKYGDDTVKFFQEDPKQLEQLFDVSLKGDFQTVLISGFNVVSLLVQNGLHNVKLVEKLLKNNNLINILQNIEQMDTCYVCIRLLQELAVIPEYRDVIWLHEKKFMPTLFKILQRATDSQLATRIVATNSNHLGIQLQYHSLLLIWLLTFNPVFANELVQKYLSDFLDLLKLVKITIKEKVSRLCISIILQCCSTRVKQHKKVIKQLLLLGNALPTVQSLSERKYSDEELRQDISNLKEILENEYQELTSFDEYVAELDSKLLCWSPPHVDNGFWSDNIDEFKKDNYKIFRQLIELLQAKVRNGDVNAKQEKIIIQVALNDITHVVELLPESIDVLDKTGGKADIMELLNHSDSRVKYEALKATQAIIGYTFK
- binding [1]: no binding (tested: 4 µM)
- binding [2]: no binding (tested: 4 µM)
